# From PubChem BioAssay AID2551 (National Center for Advancing Translational Sciences (NCATS), 2010)
# By UniProt entry, the sequences of proteins in these tests, tags left out. Where a name states a change or a piece, a line headed by the entry shows the natural chain unless it says otherwise.
# UniProt P51450: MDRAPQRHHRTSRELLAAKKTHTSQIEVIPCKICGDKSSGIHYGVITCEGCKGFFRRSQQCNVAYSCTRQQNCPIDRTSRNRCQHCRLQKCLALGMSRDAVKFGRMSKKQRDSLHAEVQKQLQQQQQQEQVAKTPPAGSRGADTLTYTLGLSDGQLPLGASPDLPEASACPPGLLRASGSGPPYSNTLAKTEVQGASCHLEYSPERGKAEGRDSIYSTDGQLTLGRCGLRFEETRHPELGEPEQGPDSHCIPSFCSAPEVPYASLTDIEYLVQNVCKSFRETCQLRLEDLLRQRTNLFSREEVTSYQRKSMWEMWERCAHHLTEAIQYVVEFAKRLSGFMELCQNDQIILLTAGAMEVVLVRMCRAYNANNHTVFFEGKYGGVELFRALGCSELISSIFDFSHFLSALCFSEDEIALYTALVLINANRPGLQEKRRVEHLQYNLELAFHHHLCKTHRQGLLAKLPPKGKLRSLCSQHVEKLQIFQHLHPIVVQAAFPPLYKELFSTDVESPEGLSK
# Values joined by “and” are separate entries in the source; they are usually repeats but may differ in a detail not shown here. Equal entries are not always repeated. About 17,000 (5.5%) of roughly 310,000 compounds were called active. This list was built around the results that the source calls inconclusive (neither active nor inactive); the mix of calls is not that of the screen. Calls follow the shape of the dose curve; as a rule, active = well fitted inhibition curve with a large enough effect; inconclusive = small, poorly fitted or top-dose-only effect, or effect the other way; inactive = no such curve, though single readings can be large or run the other way. Where the call is inconclusive, the potency comes from a doubtful curve fit.
# Target: Nuclear receptor ROR-gamma (Mus musculus) (UniProt P51450)
# Test: qHTS for inhibitors of ROR gamma transcriptional activity; also: nearly all actives have a fitted effect of over 60% in size
# Details: Drosophila S2 Gal4-RORgamma UAS-luciferase reporter, 20 h; activity change, negative = inhibition: at 53.6 µM (top of the series)
# In short: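 Luciferase reporter read in Schneider cells carrying Gal4-RORγ (mouse) and UAS-Photinus luciferase; cells given compound 1 h before 700 uM copper sulfate induction, then incubated 20 h at ambient temperature.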
# % is scaled to controls: 0 for no effect and ±100 for the full control effect; potency is read from the fitted curve at half-maximal effect.
SMILES,Potency,"activity change, negative = inhibition"
CCN(CC)S(=O)(=O)c1cc(NC(=O)COc2ccc(C#N)cc2OC)ccc1C,"inconclusive: 25.1 µM [activator, single point]",–
Cc1ccc(C)c(Oc2cc(NC(=O)CCCn3nc(C)c([N+](=O)[O-])c3C)cc([N+](=O)[O-])c2)c1,"inconclusive: 3.16 µM [inhibitor, single point]",–
Cc1cccc(Nc2nnc(SC/C(O)=C(\C#N)c3nc4ccccc4[nH]3)s2)c1,active: 7.08 µM,–
O=C(Nc1ccccc1)N(Cc1ccc2c(c1)OCO2)Cc1nc2ccccc2c(=O)[nH]1,"inconclusive: 15.8 µM [inhibitor, single point]",–
Cn1ccnc1Sc1cc(NCCCO)c([N+](=O)[O-])c2nonc12,active: 1.26 µM,–
O=C(Nc1nc2ccccc2n1CCN1CCOCC1)c1ccc(Cn2cc([N+](=O)[O-])cn2)o1,active: 11.2 µM,–
COc1ccc(NC(=S)NC(NC(C)=O)C(Cl)(Cl)Cl)c([N+](=O)[O-])c1 (stereo not drawn),"inconclusive: 35.5 µM [inhibitor, single point]",–
CCc1ccc(N/C(N)=N/c2nc(CSc3ccccn3)cc(=O)[nH]2)cc1,–,inactive: -4.03%
O=C(CCN1C(=O)/C(=C/c2ccccc2Cl)SC1=S)N1CCOCC1,active: 7.08 µM,–
COc1cccc(C(=O)N/N=C/c2ccc(OC)c(COc3ccccc3C(N)=O)c2)c1,"inconclusive: 11.2 µM [activator, partial curve]",–
COc1cc(/C=C2\SC(=O)N(Cc3ccc(Cl)cc3)C2=O)cc([N+](=O)[O-])c1O,–,inactive: 2.68%
COC(=O)c1ccc(C(=O)OC)c(NC(=O)CN(C)Cc2ccccc2)c1,–,inactive: -1.15%
CCNC(=S)N/N=C/c1sc(N2CCCCC2)nc1-c1cccs1,"inconclusive: 0.0447 µM [inhibitor, full curve, poor fit]",–
CCOc1nc(SCCOc2ccc(Cl)cc2Cl)nc(N(C)C)n1,"inconclusive: 22.4 µM [activator, single point]",–
Cc1cc(C(=O)CN2C(=O)NC3(CCCC3)C2=O)c(C)n1-c1ccc2c(c1)OCO2,"inconclusive: 28.2 µM [activator, single point]",–
S=C(Nc1ccc(Cl)cc1Cl)N1CCCCC1,"inconclusive: 22.4 µM [inhibitor, single point]",–
COc1ccc(/C=N/NC(=O)CCn2cnc(-c3ccccc3)c2-c2ccccc2)cc1OC,"inconclusive: 22.4 µM [inhibitor, single point]",–
CCNS(=O)(=O)c1ccc(NC(=O)Nc2cccc(OC)c2)cc1,"inconclusive: 22.4 µM [inhibitor, partial curve, poor fit]",–
Brc1ccc(OCc2ccccc2)c(CNCc2ccncc2)c1,"inconclusive: 20 µM [inhibitor, single point]",–
COc1ccc(Nc2cc(C(=O)N3CCc4ccccc4C3)c3ccccc3n2)c(OC)c1,"inconclusive: 22.4 µM [activator, single point]",–
CCC(=O)c1ccc(OCC(O)Cn2c(C)nc3ccccc32)cc1 (stereo not drawn),"inconclusive: 0.562 µM [activator, full curve, poor fit]",–
Cc1ccc(C(=O)Nc2nnc(C3=COCCO3)o2)cc1C,active: 0.282 µM,–
COc1ccc(OC)c(C(C[N+](=O)[O-])c2c(C)cc3ccccn23)c1 (stereo not drawn),"inconclusive: 11.2 µM [inhibitor, single point]",–
Cc1csc(NC(=O)c2ccco2)n1,–,inactive: -34.5% [at 0.365 µM]
Cc1cc(C)nc(-n2nc(C)cc2NC(=O)c2cccc(S(=O)(=O)N3CCCCC3)c2)n1,"inconclusive: 2.24 µM [inhibitor, full curve, poor fit]",–

# Single values from above:
# activity change, negative = inhibition with CCc1ccc(N/C(N)=N/c2nc(CSc3ccccn3)cc(=O)[nH]2)cc1 reads inactive: -4.03%
# Potency with Brc1ccc(OCc2ccccc2)c(CNCc2ccncc2)c1 reads inconclusive: 20 µM [inhibitor, single point]

# The results go on.

SMILES,Potency,"activity change, negative = inhibition"
COc1ccc(-n2c(Cn3c(=O)sc4ccccc43)nnc2SCC(=O)N2CCCC2)cc1,"inconclusive: 3.98 µM [activator, single point]",–
CC(C)Cn1c(N)c(C(=O)CSc2ncnc3sc4c(c23)CCCC4)c(=O)n(C)c1=O,–,inactive: -16.2%
CCn1nc(NC(C)=O)c2cc3ccc(C)cc3nc21,–,inactive: 0.992%
CC(=O)NC(=S)Nc1cccc2c(C)cc(C)nc12,active: 1.58 µM,–
Cc1ccc(NC(=O)CC2SC3=NCCN3C2=O)cc1 (stereo not drawn),"inconclusive: 20 µM [inhibitor, single point]",–
Clc1ccc(OCc2nc3ccccc3[nH]2)cc1,"inconclusive: 5.01 µM [activator, partial curve]",–
O=C(Nc1cccc(C(F)(F)F)c1)OCCN1CCN(Cc2ccccc2)CCC1=O,"inconclusive: 15.8 µM [activator, partial curve] and inconclusive: 25.1 µM [activator, single point]",–
CN(C(=O)CC1C(=O)NCCN1Cc1ccc(F)cc1Cl)C1CCCCC1 (stereo not drawn),active: 11.2 µM,–
NC(=O)c1nsnc1-c1ccccc1O,active: 22.4 µM,–
CCOC(=O)COn1c(=O)c(-c2ccc(OC)cc2)[n+]([O-])c2ccccc21,–,inactive: 4.17%
COc1ccc(S(=O)(=O)N2CCN(C)CC2)c(C)c1,–,inactive: 16.1% [at 1.91 µM]
Cc1ccc(Nc2ccc([N+](=O)[O-])nc2[N+](=O)[O-])cc1,"inconclusive: 11.2 µM [inhibitor, partial curve, poor fit]",–
Cc1cccc(NC(=S)N2CCCC(c3nc4ccccc4[nH]3)C2)c1 (stereo not drawn),"inconclusive: 20 µM [inhibitor, single point]",–
O=C(Nc1ccccn1)C1CCN(S(=O)(=O)c2cccc3nonc23)CC1,"inconclusive: 35.5 µM [inhibitor, single point]",–
C=CCn1c(SCC(=O)NCc2ccc3c(c2)OCO3)nc2scc(-c3ccccc3)c2c1=O,–,inactive: 27.7%
O=C(c1cccc(Cl)c1)N1CCCC(C(=O)N2CCN(c3ccccc3)CC2)C1 (stereo not drawn),–,inactive: 2.19%
O=C(CC1Sc2ncnn2C1=O)Nc1ccc(Cl)cc1 (stereo not drawn),"inconclusive: 35.5 µM [inhibitor, single point]",–
CCc1cc(C(=O)NNC(=S)Nc2ccccc2C)cs1,–,inactive: -0.97%
CCNC(=S)N1CCN(CC(=O)Nc2ccc(Br)cc2)CC1,"inconclusive: 20 µM [activator, single point]",–
CCN(CC)S(=O)(=O)c1ccc(C(=O)OCC(=O)Nc2ccc(-c3nc4ccc(C)cc4s3)cc2)cc1,active: 0.398 µM,–
C=C(C)COc1ccc(-c2[nH]ncc2-c2ccccc2OC)c(O)c1,active: 8.91 µM,–
CCN(CC)CCN(C(=O)CCS(=O)(=O)c1ccccc1)c1nc2c(C)cc(C)cc2s1,"inconclusive: 14.1 µM [inhibitor, partial curve, poor fit]",–
COc1ccc(C(=O)CSc2nc3ccc([N+](=O)[O-])cc3[nH]2)cc1,"inconclusive: 22.4 µM [activator, partial curve]",–
COc1ccc(C(CCN2CCOCC2)c2c(OC)cc(OC)c3c(-c4ccccc4)cc(=O)oc23)cc1 (stereo not drawn),"inconclusive: 35.5 µM [inhibitor, single point]",–
O=C(CCCN1CCN2CCCC2C1)c1ccc(F)cc1 (stereo not drawn),–,inactive: -10.4%

SMILES,Potency,"activity change, negative = inhibition"
CN(c1cccc(NC(=O)c2ccc(CN3CCc4ccccc4C3)cc2)c1)S(C)(=O)=O,"inconclusive: 22.4 µM [activator, single point]",–
COc1cc([N+](=O)[O-])cc(/C=N/NC(=O)c2ccc(C)nc2)c1O,active: 0.891 µM,–
COC(=O)c1ccc(NC(=O)c2cccc(NC(=O)c3ccccc3)c2)cc1,"inconclusive: 7.94 µM [activator, partial curve]",–
O=C(CCCn1c(=S)[nH]c2ccsc2c1=O)Nc1ccc2c(c1)OCO2,active: 12.6 µM,–
O=C(NC(=S)Nc1ccccc1F)c1ccc(Br)o1,active: 4.47 µM,–
NC(=O)c1cccc2c1-c1ccccc1/C2=N/NC(N)=S,"inconclusive: 12.6 µM [inhibitor, single point]",–
CN(NS(=O)(=O)c1ccc(Cl)cc1)c1nc(C(F)(F)F)nc2ccccc12,"inconclusive: 20 µM [inhibitor, single point]",–
NC(=NCCc1ccc(Cl)cc1)NS(=O)(=O)c1ccccc1,–,inactive: 10.3%
Cc1c(CCC(=O)NCCCn2ccnc2)c(=O)oc2c(C)c3oc4c(c3cc12)CCCC4,–,inactive: -28.2%
C=CCn1c(-c2ccc(Cl)cc2)cnc1SC(C)C(N)=O (stereo not drawn),active: 7.94 µM,–
Cn1c(=O)c(-c2cccc(F)c2)nc2cncnc21,–,inactive: -28.1%
CC(C)N=C1NN=C(c2cccs2)CS1,active: 12.6 µM,–
COC(=O)NC(/C(C(=O)OC)=C(\C)NCc1ccccc1)c1ccccc1 (stereo not drawn),–,inactive: 7.76% [at 10 µM]
O=C(NNC(=S)Nc1cccc(C(F)(F)F)c1)c1ccccc1Cl,active: 12.6 µM,–
CCOc1cccc(=O)c2c(C)n(C)c(C)c12,–,inactive: -29.9%
CCOC(=O)c1oc2ccccc2c1NC(=O)C(C)(C)C,"inconclusive: 22.4 µM [activator, single point]",–
OC1(C(F)(F)F)CC(c2ccc3ccccc3c2)=NO1 (stereo not drawn),–,inactive: 5.12%
O=C(Cn1nnc(-c2cccs2)n1)N1CCc2ccccc2C1,"inconclusive: 11.2 µM [activator, partial curve]",–
CCOc1ccc2nc(SCCNS(=O)(=O)c3ccccc3)sc2c1,"inconclusive: 12.6 µM [activator, single point]",–
COCC(=O)N1CCC2(CCCN(C(c3ccccc3)c3ccccc3)C2)CC1,–,inactive: 24.8%
O=C(Nc1ccc2c(c1)OCCO2)C1CCN(C(=O)c2ccc([N+](=O)[O-])cc2)CC1,"inconclusive: 0.251 µM [activator, full curve]",–
O=C(CSc1n[nH]c(=O)[nH]c1=O)N/N=C/c1ccccc1O,–,inactive: -26.8%
CCC1CSC(Nc2ccc(C(=O)/C=C/c3ccc(OC)c(OC)c3)cc2)=N1 (stereo not drawn),"inconclusive: 35.5 µM [inhibitor, single point]",–

# Entries from the list above that have a cyano group (two):
SMILES,Potency,"activity change, negative = inhibition"
CCN(CC)S(=O)(=O)c1cc(NC(=O)COc2ccc(C#N)cc2OC)ccc1C,"inconclusive: 25.1 µM [activator, single point]",–
Cc1cccc(Nc2nnc(SC/C(O)=C(\C#N)c3nc4ccccc4[nH]3)s2)c1,active: 7.08 µM,–
